Among all 390,000 compounds or so, about 4,000 (1%) were called active. Inconclusive results, whose numbers are uncertain, are shown with a selection of clear calls. Calls follow the shape of the dose curve; as a rule, active = well fitted inhibition curve with a large enough effect; inconclusive = small, poorly fitted or top-dose-only effect, or another doubt; inactive = no such curve, though single readings can be large or run the other way. Potencies beside an inconclusive call are fits to weak or partial responses and may not hold up.
target: DNA polymerase iota (Homo sapiens) (UniProt Q9UNA4); assay: qHTS for Inhibitors of Polymerase Iota; settings: Pol iota fluorescent replication assay, 10 min; series mostly up to 115 µM; activity, negative = inhibition: at the top concentration
In short: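 Pol iota at 10 nM preincubated 15 min with compounds at room temperature; reaction started with fluorescent substrate, 50 nM final. Fluorescence read kinetically at 0 and 10 min; buffer-only wells as negative control.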
Potency is read from the fitted curve at half-maximal effect.

By UniProt entry, the sequences of proteins in these tests, tags left out. Where a name states a change or a piece, a line headed by the entry shows the natural chain unless it says otherwise.
UniProt Q9UNA4: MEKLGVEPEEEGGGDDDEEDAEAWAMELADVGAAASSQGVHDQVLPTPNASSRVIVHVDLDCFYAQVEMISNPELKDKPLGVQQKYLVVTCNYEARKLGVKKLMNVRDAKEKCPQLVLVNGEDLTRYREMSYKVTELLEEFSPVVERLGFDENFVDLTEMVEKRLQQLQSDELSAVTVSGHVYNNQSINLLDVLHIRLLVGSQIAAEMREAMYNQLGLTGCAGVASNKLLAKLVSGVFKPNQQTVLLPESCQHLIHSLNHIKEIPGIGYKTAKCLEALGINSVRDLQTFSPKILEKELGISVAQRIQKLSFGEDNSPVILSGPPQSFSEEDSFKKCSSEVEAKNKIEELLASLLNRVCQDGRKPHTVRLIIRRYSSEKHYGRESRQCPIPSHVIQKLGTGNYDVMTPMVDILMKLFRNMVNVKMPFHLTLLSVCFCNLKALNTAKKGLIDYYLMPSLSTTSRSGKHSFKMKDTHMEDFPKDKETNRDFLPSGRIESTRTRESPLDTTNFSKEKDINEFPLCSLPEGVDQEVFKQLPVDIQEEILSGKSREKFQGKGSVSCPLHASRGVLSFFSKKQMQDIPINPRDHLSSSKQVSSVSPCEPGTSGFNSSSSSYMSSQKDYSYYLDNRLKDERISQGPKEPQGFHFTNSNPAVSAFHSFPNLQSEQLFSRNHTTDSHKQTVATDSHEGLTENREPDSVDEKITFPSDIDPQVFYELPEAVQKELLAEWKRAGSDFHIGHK

Row | Structure (SMILES) | Potency | activity, negative = inhibition
1 | Cc1nnc(SCC(=O)Nc2cccc(C(F)(F)F)c2)n1Cc1ccco1 | inconclusive: 8.91 µM [inhibitor, full curve, poor fit] | –
2 | O=C(COc1ccc(F)c(Cl)c1)c1ccc[nH]1 | inconclusive: 35.5 µM [inhibitor, single point] | –
3 | Cc1cc(C)cc(NC(=O)Nc2ccc3c(c2)CCC3)c1 | inconclusive: 7.08 µM [inhibitor, partial curve, poor fit] | –
4 | COC(=O)C[C@H]1c2cc(C(F)(F)F)ccc2S(=O)(=O)N1C1CCCCC1 | inconclusive: 39.8 µM [inhibitor, single point] | –
5 | COc1cc(/C=N/NC(=O)c2ccc(-n3cccc3)cc2)ccc1O | active: 89.1 µM | –
6 | Cc1ccc(C(=O)N2CCC3(CC2)Oc2ccc(F)cc2C(=O)C32CC(c3ccccc3)=NO2)s1 (configuration not stated) | inconclusive: 25.1 µM [inhibitor, partial curve] | –
7 | O=C(CNS(=O)(=O)c1ccccc1)NCC(=O)OCc1ccccc1F | inconclusive: 89.1 µM [inhibitor, single point] | –
8 | O=S(=O)(c1ccccc1)c1nc(-c2ccccc2)oc1N1CCN(c2cccc(Cl)c2)CC1 | inconclusive: 8.91 µM [inhibitor, full curve, poor fit] | –
9 | Cc1c(Cl)cccc1NC(=O)C(C)N(c1ccccc1)S(C)(=O)=O (configuration not stated) | – | inactive: 1.52%
10 | Cc1ccc(C(=O)Nc2ncc3c(n2)CC(c2ccco2)CC3=O)cc1 (configuration not stated) | inconclusive: 39.8 µM [inhibitor, full curve] | –
11 | C=CCn1c(SCC(=O)c2ccc(O)c(O)c2)nnc1-c1ccc(OC)cc1 | active: 50.1 µM | –
12 | COc1ccc(C(=O)Nc2ccc3c(c2)OCCO3)cc1[N+](=O)[O-] | inconclusive: 39.8 µM [inhibitor, partial curve] | –
13 | Cc1cccc(C(=O)Nc2sc(C)c(-c3ccccc3)c2C#N)c1 | inconclusive: 28.2 µM [inhibitor, single point] | –
14 | CCc1ccccc1NC(=O)c1cnc2scc(C)n2c1=O | inconclusive: 39.8 µM [inhibitor, partial curve, poor fit] | –
15 | CCN(CC(=O)Nc1c(F)cccc1F)C(=O)Cc1ccc2c(c1)CCC2 | inconclusive: 28.2 µM [inhibitor, partial curve] | –
16 | Fc1ccc(N=c2ssnc2Cl)c(F)c1 | inconclusive: 25.1 µM [inhibitor, single point] | –
17 | O=C1CC(c2ccccc2)CC(O)=C1C=NC1CCCC1 (configuration not stated) | inconclusive: 79.4 µM [inhibitor, partial curve, poor fit] | –
18 | CCN(CC)S(=O)(=O)c1cccc(C(=O)N/N=C/c2c(C)nn(-c3ccccc3)c2Cl)c1 | – | inactive: 198%
19 | COc1cccc(C(=O)Nc2ccc(-c3nnc(-c4ccco4)o3)cc2)c1 | inconclusive: 35.5 µM [inhibitor, partial curve] | –
20 | CCCc1cc(=O)[nH]c(SCC(=O)Nc2nc3ccc(OCC)cc3s2)n1 | inconclusive: 56.2 µM [inhibitor, partial curve, poor fit] | –
21 | CCS(=O)(=O)n1nc(C(=O)N2CCOCC2)nc1N | inconclusive: 6.31 µM [inhibitor, full curve, poor fit] | –

Three compounds already listed, ordered by heavy-atom count, smallest number first.
Row | Structure (SMILES) | Potency | activity, negative = inhibition
14 | CCc1ccccc1NC(=O)c1cnc2scc(C)n2c1=O | inconclusive: 39.8 µM [inhibitor, partial curve, poor fit] | –
13 | Cc1cccc(C(=O)Nc2sc(C)c(-c3ccccc3)c2C#N)c1 | inconclusive: 28.2 µM [inhibitor, single point] | –
1 | Cc1nnc(SCC(=O)Nc2cccc(C(F)(F)F)c2)n1Cc1ccco1 | inconclusive: 8.91 µM [inhibitor, full curve, poor fit] | –

The list goes on:

Row | Structure (SMILES) | Potency | activity, negative = inhibition
22 | COc1cc(N(C)C)c(OC)cc1/C=C1\C=Cc2ccccc21 | – | inactive: 4.5%
23 | CCOc1ccc(/C=C/c2nc3ccccc3n2S(=O)(=O)c2cccc(Cl)c2)cc1 | – | inactive: 2.54%
24 | N#CC1=C(SCC(N)=O)NC(=O)CC1c1ccccc1Cl (configuration not stated) | inconclusive: 39.8 µM [inhibitor, partial curve, poor fit] | –
25 | CCOc1ccc(C(=O)Nc2ccc3nc(SCC(=O)N(C)c4ccccc4)sc3c2)cc1 | inconclusive: 89.1 µM [inhibitor, single point] | –
26 | O=C(NCCc1cccc(Cl)c1)C1CCC(=O)N(Cc2ccc(Cl)cc2)C1 (configuration not stated) | inconclusive: 89.1 µM [inhibitor, single point] | –
27 | O=c1ccc2cc3c4c(c2o1)CCCN4CCC3 | inconclusive: 56.2 µM [inhibitor, partial curve, poor fit] | –
28 | COC(=O)[C@H](C)NC(=O)Nc1cc(OC)ccc1OC | inconclusive: 89.1 µM [inhibitor, single point] | –
29 | Cc1cc(-c2n[nH]c(=S)n2/N=C/c2ccc(C)o2)n[nH]1 | – | inactive: -20.3%
30 | CN1CCCN(C(=O)Cc2c(Cl)cccc2Cl)c2nc3ccccc3nc21 | inconclusive: 39.8 µM [inhibitor, single point] | –
31 | CCn1c2c(c(C)cc1=O)C(=O)CC(C)(C)C2 | inconclusive: 89.1 µM [inhibitor, single point] | –
32 | CC1C2(C)OC(=N)C(C#N)(C(C)O2)C1(C#N)C#N (configuration not stated) | inconclusive: 35.5 µM [inhibitor, full curve] | –
33 | O=C(CN1C(=O)CSc2ccc(S(=O)(=O)N3CCCC3)cc21)Nc1cccc(Cl)c1 | – | inactive: 5.81%
34 | Cc1cc(C)n2nc(C(=O)N3CCN(Cc4ccc5c(c4)OCO5)CC3)nc2n1 | inconclusive: 89.1 µM [inhibitor, single point] | –
35 | Cc1cc2ccccc2cc1C(=O)c1ccccc1 | – | inactive: -0.172%
36 | O=C(O)c1ncc(Cl)c(Cl)c1Cl | inconclusive: 2 µM [inhibitor, partial curve, poor fit] | –
37 | CCCCSc1nnc(-c2cc(Br)ccc2N)c(=O)[nH]1 | inconclusive: 10 µM [inhibitor, partial curve] | –
38 | COc1ccc(C(=O)NC2CCN(C(=S)NCc3ccco3)CC2)cc1 | inconclusive: 89.1 µM [inhibitor, single point] | –
39 | O=C(O)C1C2C=CC(CC2)C1C(=O)O (configuration not stated) | inconclusive: 100 µM [inhibitor, partial curve, poor fit] | –
40 | Cc1ccc(S(=O)(=O)CCSc2cccc(C(=O)Nc3ccccc3C(=O)O)c2)cc1 | inconclusive: 20 µM [inhibitor, partial curve] | –
41 | O=C(CNCc1ccco1)Nc1ccccc1-n1cccc1 | inconclusive: 100 µM [inhibitor, single point] | –
42 | COc1cc(/C=C2/C(=N)N3N=C(C(C)C)SC3=NC2=O)ccc1OS(=O)(=O)c1ccccc1 | inconclusive: 39.8 µM [inhibitor, partial curve, poor fit] | –

From PubChem BioAssay AID588590 (National Center for Advancing Translational Sciences (NCATS), 2011)
